Reference: PubChem BioAssay AID493014 (National Center for Advancing Translational Sciences (NCATS), 2011)
Among all 340,000 compounds or so, about 170 (0.05%) were called active. This list was built around the results that the source calls inconclusive (neither active nor inactive); the mix of calls is not that of the screen. Calls come from the whole dose curve; as a rule, active = well fitted inhibition curve with a large enough effect in the signal ratio, with a control signal flat (not every such curve was filed as active); inconclusive = small, poorly fitted or top-dose-only effect, or effect the other way, or a change in a side signal; inactive = flat fitted curve, though single readings scatter; the % refers to the signal ratio. A potency beside an inconclusive call is a rough fit, not a confirmed value.

assay: qHTS Assay to Find Inhibitors of Chronic Active B-Cell Receptor Signaling; settings: ABC-DLBCL IkBa-CBG/CBR reporter, luminescence ratio (green luciferase fused to IkBa over red control in TMD8 lymphoma cells), 4 h; activity change, negative = inhibition: at 46.1 µM (top of the series);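 for activity change, negative = inhibition: plate controls were basal doxycycline-induced cells for no effect and cells given 10 µM MG132 for full effect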
From the text: NIH Molecular Libraries Probe Production Network [MLPCN] NIH Chemical Genomics Center [NCGC] MLPCN Grant: 1 R03 DA031086-01A1 PI Name: Dr. R. Eric Davis NCGC Assay Overview: Diffuse large B-cell lymphoma (DLBCL) is the most common category of non-Hodgkin lymphoma, with ~20,000 new cases per year in the United States. DLBCL should be regarded as a collection of different neoplasms. Microarray gene expression analysis has defined two principal types of DLBCL, named for their similarity to normal B cell stages or activation states: a germinal center B-cell (GCB) type, and an activated B-cell (ABC) type. In ABC-DLBCL, a constitutive high-level activity of the NF-kappaB family of transcription factors has been observed (1) and NF-kappaB target genes are more highly expressed in ABC primary tumors than in GCB tumors. Functional studies have shown a constitutive high-level activity of the IkappaB (inhibitor of kappa-B) kinase (IKK) complex. […] Further analysis of DLBCL primary tumors for NF-kappaB target gene expression imply that although CARD11 is required for constitutive IKK activity in all ABC-DLBCL lines, mutations in CARD11 may be the root cause of IKK activation only in lines or tumors with such mutations. In other words, CARD11 mutations may explain NF-kappaB activation in only 10% of ABC-DLBCL cases. […] This process has been termed 'chronic active BCR signaling' (CABS). The goal of this screen is to find small-molecule inhibitors of the CABS pathway found in ABC-DLBCL lines using a cell-based assay that measures IkappaBalpa stability, which has already been extensively validated in the OCI-Ly3 line (PubChem AID:445; REF: 4). […] The assay uses green (CBG68) and red (CBR) emitting beetle luciferases [Chroma-GloTM developed by Promega Corp.] where the green luciferase is fused to IkappaBalpha and the red luciferase is present in its native state. Both luciferase genes are stably present in the TMD8 human ABC DLBCL cell line, but their expression is under the control of tetracycline-inducible promoters. Following the addition of doxycycline to induce expression of the luciferases, the green luminescence in control cultures rises only slowly because the CBG fusion partner IkappaBalpha is targeted by IKK activity for rapid degradation. In contrast, green luminescence rises rapidly in the presence of proteasome inhibitors or IKK inhibitors. The rise in red luminescence of CBR is not affected by proteasome or IKK inhibitors, and serves as normalization for cell number and nonspecific effects. Compounds were screened as a concentration-titration series that ranged from 46 uM to 3 nM.
NCGC Assay Protocol Summary: Cells were seeded in 1536-well plates at 5000 cells/4uL in IMDM medium containing 0.5% FBS, w/o phenol red, 1% penicillin/streptomycin. Then, 23 nL of compounds or DMSO were delivered to each well using a pin tool. One uL 20ng/ml doxycycline was then dispensed into white solid 1536-well plates and the plates were incubated at 37C/5% C02 in a cell incubator for 4 hrs. Then 4 uL luminescent substrate mix (in-house prepared: 150 mM Tris-Cl, pH 7.6, 3 mM MgCl2, 1% Triton X-100, 5 mM DTT, 0.2 mM CoA, 0.15 mM ATP, 5 mM D-luciferin, final concentrations) was added to each well. The plate was incubated at r.t. for 10-15 min. The plates were measured on a ViewLux plate reader for green luminescence (540/20 nm filter) and red luminescence (618/8 nm filter). The green and red luminescent signals were corrected for red and green luminescence filter overlap using previously determined filter calibration constants (determined using the procedure outlined in the Promega Technical Manual; REF 4). The %Activity was determined from the ratio of corrected green/red luminescent values. MG132 were used as control. […] Red luminescent %Activity was normalized to the difference between red luminesence in basal cells (0%Activity) and zero luminescence (-100% Activity). […]
Potency is the fitted concentration of half-maximal effect.

Row | SMILES | activity change, negative = inhibition | Potency
1 | Cn1nc(C(F)(F)F)c2cc(C(=O)Nc3ccc(Cl)cc3)sc21 | inactive | –
2 | Cc1ccccc1NC(=O)CC1c2ccccc2CC(C)(C)N1C (stereo not drawn) | – | inconclusive: 7.08 µM [falling, full curve, poor fit]
3 | CC(C)Nc1nc(NC(C)C)nc(OCCOC(=O)Nc2ccccc2)n1 | – | inconclusive: 32.6 µM [falling, single point]
4 | CCOc1ccc(N(CC(=O)Nc2cccc(F)c2)S(=O)(=O)c2c(C)noc2C)cc1 | inconclusive: 3.41% | –
5 | Oc1ccc(Cl)cc1C=Nc1ccccc1Br | inactive | –
6 | O=C(Nc1cccc(Cl)c1)Nc1ccc2c(c1)C(=O)OC2 | inconclusive: 15.5% | –
7 | Cc1c(NC(=O)CSc2ccc3ccccc3n2)c(=O)n(-c2ccccc2)n1C | inconclusive: 2.5% | –
8 | CC1Cc2ccccc2N1C(=O)CN1C(=O)NC(C)(c2ccc3c(c2)OCCO3)C1=O (stereo not drawn) | – | inconclusive: 16.4 µM [falling, single point]
9 | CCc1ccc(C(=O)NNC(=O)C2CCN(c3ncnc4sc(C)c(C)c34)CC2)cc1 | inactive | –
10 | CCOC(=O)[C@H]1[C@H]2COc3ccccc3[C@@H]2N2C(=O)c3ccc(Cl)cc3NC(=O)[C@@]12C | inconclusive: 16.7% | –
11 | O=C(N[C@@H]1CCC(=O)N(CC[C@H](Oc2ccccc2)c2ccccc2)CC1)OCc1ccccc1 | – | inconclusive: 3.98 µM [rising, partial curve, poor fit]
12 | CCOc1ccc2[nH]c3c(NCC(C)C)ncnc3c2c1 | inconclusive: 6.24% | –
13 | COc1cc(-c2nc(CN3CCCCC3CCNC(C)=O)c(C)o2)ccc1F (stereo not drawn) | inconclusive: -1.19% | –
14 | C=CCn1c(=O)/c(=C2/Sc3cc(OC)ccc3N2C)s/c1=C1\C(=O)N(CC)C(=S)N1C | inconclusive: 5.45% | –
15 | C/C(=N/NC(=O)c1ccccn1)c1ccc(O)cc1 | – | inconclusive: 25.1 µM [falling, single point]
16 | Cc1sc(NC(=O)c2ccccc2)c(C(=O)c2ccccc2)c1C | inconclusive: 20.2% | –
17 | Cc1ccnc(NC(=O)c2ccc3c(c2)NC(=O)C(C)S3)c1 (stereo not drawn) | – | inconclusive: 5.17 µM [rising, full curve, poor fit]
18 | O=C(Nc1ccc(NC(=O)C2CC2)nc1)c1ccccn1 | inconclusive: -27.4% | –
19 | CCC(=O)N1CCc2cc(CNC(=O)Cc3ccc(OC)c(OC)c3)ccc21 | inactive | –

Row | SMILES | activity change, negative = inhibition | Potency
20 | CS(=O)(=O)Nc1ccc(C(=O)Nc2ccc3c(c2)OCCO3)cc1 | inconclusive: -16.2% | –
21 | COc1ccccc1C(=O)Nc1ccc2c(c1)nc(CCNC(C)=O)n2C | inactive | –
22 | CC(C)=CCC[C@](C)(O[C@@H]1O[C@H](CO[C@@H]2OC[C@@H](O)[C@H](O)[C@H]2O)[C@@H](O)[C@H](O)[C@H]1O)C1CC[C@]2(C)C1[C@H](O)CC1[C@@]3(C)CC[C@H](O[C@@H]4O[C@H](CO)[C@@H](O)[C@H](O)[C@H]4O)C(C)(C)C3CC[C@]12C (stereo partly drawn) | inconclusive: 3.13% | –
23 | O=C1SC(SCc2ccccc2)=N/C1=C\c1ccc(C(=O)O)cc1 | – | inconclusive: 31.6 µM [falling, partial curve]
24 | O=C1C2C3C=CC(C3)C2C(=O)N1CCN1CCN(S(=O)(=O)c2ccc3ccccc3c2)CC1 (stereo not drawn) | inconclusive: -2.8% | –
25 | CCOC(=O)c1c(C)nc2c(c1-c1ccc(OC)cc1)C(=O)CC(C)(C)C2 | inconclusive: 10.1% | –
26 | CSc1ccccc1NC(=O)c1cc(-c2ccc3c(c2)OCO3)on1 | – | inconclusive: 14.1 µM [falling, partial curve, poor fit]
27 | O=C(COc1ccc([N+](=O)[O-])cc1)NNC(=O)c1cccs1 | inconclusive: 3.32% | –
28 | CC1(C)CC(=O)C2=C(C1)OC(N)=C(C#N)C2c1ccc(OC(=O)N2CCOCC2)cc1 (stereo not drawn) | inconclusive: 4.8% | –
29 | COc1ccccc1N1CCN(/N=C/C=C/c2ccccc2[N+](=O)[O-])CC1 | inconclusive: -21.2% | –
30 | CN(C(=O)c1ccco1)c1nc(-c2ccc(F)cc2)cs1 | inconclusive: 16.3% | –
31 | C/C(=N\NC(=O)Cn1nc(C)c([N+](=O)[O-])c1C)c1ccco1 | inconclusive: 3.77% | –
32 | O=C(CN1C(=O)NC2(CCCC2)C1=O)NNC(=O)c1ccc(Br)cc1 | inconclusive: 14.2% | –
33 | CC(=O)c1cnc(-c2ccccn2)s1 | inconclusive: 4.8% | –
34 | Cc1ccc(O)c(NC(=O)COc2cc(C)ccc2C)c1 | inconclusive: 6.07% | –
35 | CCn1cc(C(=O)NCc2ccc3c(c2)OCO3)c(=O)c2cc(S(=O)(=O)N3CCOCC3)ccc21 | inactive | –
36 | Cc1ccc(-c2nc3ccccc3n3nnnc23)cc1 | inactive | –
37 | CN1CCNC(=O)C1CC(=O)N1CC=C(c2ccc(F)cc2)CC1 (stereo not drawn) | inconclusive: -13.4% | –
38 | CCCSc1cc(=O)n(-c2ccccc2)nc1C(=O)O | – | inconclusive: 12.6 µM [falling, single point]

Quoted from the listing.
activity change, negative = inhibition with O=C(CN1C(=O)NC2(CCCC2)C1=O)NNC(=O)c1ccc(Br)cc1 reads inconclusive: 14.2%
Potency with CSc1ccccc1NC(=O)c1cc(-c2ccc3c(c2)OCO3)on1 reads inconclusive: 14.1 µM [falling, partial curve, poor fit]
Potency with O=C1SC(SCc2ccccc2)=N/C1=C\c1ccc(C(=O)O)cc1 reads inconclusive: 31.6 µM [falling, partial curve]
